Laboratory results from paper PMC7938888, “Antidepressant drugs act by directly binding to TRKB neurotrophin receptors” (Cell, 2021).

By UniProt entry, the sequences of proteins in these tests, tags left out. Residues count along the entry.
UniProt P15209, 32-821: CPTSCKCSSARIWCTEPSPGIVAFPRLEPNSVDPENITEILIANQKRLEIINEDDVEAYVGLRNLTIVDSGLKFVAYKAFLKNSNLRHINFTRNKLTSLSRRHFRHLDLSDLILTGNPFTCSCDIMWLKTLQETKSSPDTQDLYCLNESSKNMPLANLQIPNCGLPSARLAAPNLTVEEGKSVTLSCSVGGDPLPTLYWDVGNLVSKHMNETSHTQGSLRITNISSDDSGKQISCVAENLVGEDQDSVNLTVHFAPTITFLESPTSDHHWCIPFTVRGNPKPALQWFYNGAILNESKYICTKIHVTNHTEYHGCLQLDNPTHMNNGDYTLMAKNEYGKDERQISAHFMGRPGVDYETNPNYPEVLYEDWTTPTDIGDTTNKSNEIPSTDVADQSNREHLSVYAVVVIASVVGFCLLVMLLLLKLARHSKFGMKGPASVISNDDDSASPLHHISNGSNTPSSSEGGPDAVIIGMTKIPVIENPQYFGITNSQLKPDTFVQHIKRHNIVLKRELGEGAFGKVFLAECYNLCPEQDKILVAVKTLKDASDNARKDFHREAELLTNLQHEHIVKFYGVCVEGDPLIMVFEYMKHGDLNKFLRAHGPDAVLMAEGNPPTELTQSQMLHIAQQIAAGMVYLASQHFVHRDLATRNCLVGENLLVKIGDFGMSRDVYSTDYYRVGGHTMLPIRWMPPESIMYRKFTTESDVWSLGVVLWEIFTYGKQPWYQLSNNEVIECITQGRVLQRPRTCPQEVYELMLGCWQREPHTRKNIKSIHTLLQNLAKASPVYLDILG

Target: TRKB (Mus musculus, UniProt P15209)
Experiment: Cell-free ligand binding assay on immobilised TRKB from HEK293T lysates
Design: wild-type GFP-tagged full length TRKB or the GFP-tagged Y433F TRKB mutant; host or cells: HEK293T
Procedure: The cell-free assays (binding assays) were performed in white 96-well plates, based on the protocol used for western-blotting or ELISA ([Baeza-Raja et al., 2016]; [Das et al., 2015]). The plates were precoated with anti-GFP, anti-FLAG, anti-TRK or anti-TRKB antibody (1:1000) in carbonate buffer (pH 9.8), ON at 4°C. Following blocking with 3% BSA in PBS buffer (2 h at RT), 120 ug of total protein from each sample (of lysates from HEK293T cells transfected to overexpress GFP-TRKB.wt or GFP-TRKB.Y433F) were added and incubated overnight at 4°C under agitation. […] The luminescence was determined via HRP-conjugated streptavidin (1:10000, 1h, RT) activity reaction with ECL by a plate reader. The luminescence signal from blank wells (containing all the reagents but the sample lystates, substituted by the blocking buffer) was used as background. The specific signal was then calculated by subtracting the values of blank wells from the values of the samples with matched concentration of the biotinylated ligand. For Figure 2E, the precipitated TRKB.wt or Y433F was incubated with tritiated imipramine (0-30μM) and the radioactive emission of the ligand was determined by scintillation (OptiPhase Supermix cocktail: #1200-439; MicroBeta2, Perkin-Elmer). […]

For `CNCCC(Oc1ccc(C(F)(F)F)cc1)c1ccccc1` (stereo not shown) [FLX, fluoxetine], the Ki was 1690 nM.
